Experimental data published in patent US20030186254A1.
No constants are given. Whether binding was seen depends on the method and setting. Binding seen in cells or lysates may run through a third protein. Some binding calls cover weakened binding; strength is not graded here.

Sequences of proteins named here, by UniProt entry; tags and fusion partners are left off. A change or cut given only in a name is not applied to a line headed by its entry. Residues count along the entry.
UniProt P60953, residues 1-188: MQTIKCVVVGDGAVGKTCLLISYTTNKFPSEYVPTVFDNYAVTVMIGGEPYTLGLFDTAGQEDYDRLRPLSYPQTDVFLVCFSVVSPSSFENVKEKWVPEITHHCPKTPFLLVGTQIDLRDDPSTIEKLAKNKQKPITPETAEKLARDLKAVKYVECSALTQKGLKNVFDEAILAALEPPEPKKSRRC
UniProt O96013: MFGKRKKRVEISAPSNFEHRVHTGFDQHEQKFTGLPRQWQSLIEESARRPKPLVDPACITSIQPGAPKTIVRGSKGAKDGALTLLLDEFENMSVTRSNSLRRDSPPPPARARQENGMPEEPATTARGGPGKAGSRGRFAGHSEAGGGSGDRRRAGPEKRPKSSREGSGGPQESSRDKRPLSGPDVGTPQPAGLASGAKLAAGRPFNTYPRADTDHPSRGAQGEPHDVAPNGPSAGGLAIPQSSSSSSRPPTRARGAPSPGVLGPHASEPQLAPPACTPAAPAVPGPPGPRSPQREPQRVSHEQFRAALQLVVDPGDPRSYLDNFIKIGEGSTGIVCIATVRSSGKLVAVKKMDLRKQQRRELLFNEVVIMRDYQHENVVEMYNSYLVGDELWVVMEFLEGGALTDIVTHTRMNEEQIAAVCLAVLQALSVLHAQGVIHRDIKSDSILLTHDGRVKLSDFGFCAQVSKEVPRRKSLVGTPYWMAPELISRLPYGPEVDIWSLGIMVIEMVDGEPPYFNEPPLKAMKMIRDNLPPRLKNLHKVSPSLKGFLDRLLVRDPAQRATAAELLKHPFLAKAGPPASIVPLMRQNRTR

Key:
[1] = biological target: FLAG-tagged Tip60 (60 kD Tat-interacting protein, acetyl-transferase) (human); experiment: anti-FLAG immunoprecipitation from COS cells, co-precipitated GST-PAK4 by anti-GST Western blot
[2] = biological target: FLAG-tagged Tip60 (60 kD Tat-interacting protein, acetyl-transferase) (human); experiment: co-immunoprecipitation of proteins expressed in COS cells
Cdc42 = Cdc42 (UniProt P60953); experiment: co-immunoprecipitation of PAK4 co-expressed with the small G protein in COS cells
[3] = biological target: GST-PAK4 (full-length human PAK4 serine/threonine kinase, amino-terminal GST fusion) (human) (UniProt O96013); experiment: co-precipitation of Cdc42, anti-Cdc42 Western blot

Substance | binding [1] | binding [2] | binding (Cdc42) | binding [3]
GST-PAK4 (full-length human PAK4 serine/threonine kinase, amino-terminal GST fusion) (from UniProt O96013 1-591) (enzyme) | binds | binds | binds | –
Cdc42 (from UniProt P60953 1-188) | – | – | – | binds
